In US20180319873A1 (TAIPEI MEDICAL UNIVERSITY, published 2018) one finds binding data, which are given here for one molecule.

Chains of the proteins cited; added tags and fusions are not shown.
UniProt Q97QS2: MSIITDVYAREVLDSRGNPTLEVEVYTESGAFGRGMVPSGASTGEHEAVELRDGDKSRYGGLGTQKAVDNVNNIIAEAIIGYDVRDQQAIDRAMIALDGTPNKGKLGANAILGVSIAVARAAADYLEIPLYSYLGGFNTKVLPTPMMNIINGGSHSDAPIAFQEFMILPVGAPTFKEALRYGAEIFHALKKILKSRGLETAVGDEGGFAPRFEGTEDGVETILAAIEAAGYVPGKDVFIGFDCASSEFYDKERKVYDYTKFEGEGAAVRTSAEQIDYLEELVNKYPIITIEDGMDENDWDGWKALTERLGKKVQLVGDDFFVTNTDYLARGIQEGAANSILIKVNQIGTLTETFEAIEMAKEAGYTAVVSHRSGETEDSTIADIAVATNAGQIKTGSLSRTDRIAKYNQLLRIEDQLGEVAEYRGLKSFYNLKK

In the assay the target is SpENO1 (purified recombinant ENO1 of S. pneumoniae) (S. pneumoniae) (UniProt Q97QS2). The assay can be described thus: Western blot on purified ENO1 proteins.

No constants are given. Whether binding was seen depends on the method and setting. Some entries that bind do so weakly or less than the wild type.

B1: CaS1 scFv (anti-CaENO1 scFv monoclonal antibody) (scFv)
scFv: ALTQPSSVSANLGGTVKITCSGGSGSYGWYQQKSPGSAPVTVIYSNNQRPSNIPSRFSGSPSGSTGTLTITGVQADDEAVYFCGSRDSSYVGVFGAGTTLTVLGQSSRSSTVTLDESGGGLQTPRGALSLVCKASGFTFIDYGMQWVRQAPGKGLEWVAGIGSSGSSTNYGAAVKGRATISRDDGQSTVRLQLNNLRAEDTGTYYCAKSAGGYCVNGAGCNGGSIDAWGHGTEVIVSS
notes: Chicken scFv from a phage library in pComb3X, expressed in E. coli, purified on Ni Sepharose; also called scFv CaS1; His-CaS1 scFv; not shown: His tag (and HA tag) from the pComb3X vector
B1: the binding entry is “binds”.
